Holding throughout (assay type): physicochemical
The nature of data set [1]: SABRE-SHEATH 13C hyperpolarization of [1-13C]pyruvate, DMSO co-ligand in methanol-d4, 1.8 T benchtop NMR detection.
Data set [2] can be described thus: SABRE-SHEATH 13C hyperpolarization of [1-13C]pyruvate in nonafluorobutyl methyl ether / deuterated methanol mixture. Conditions: 7.4 mM catalyst of Example 4, 46 mM DMSO, 0.2 mL NFBME and 0.2 mL MeOD, 0° C., 110 PSI.
A short description of data set [3]: Biphasic extraction of hyperpolarized pyruvate into D2O from fluorous mixture, HP 13C signal. Conditions: aqueous phase after adding 400 μL D2O to NFBME/MeOD sample (emulsion formed), 1.8 T.
Data set [4] is described as follows: Re-use of fluorous mixture containing the perfluorinated SABRE catalyst for pyruvate hyperpolarization. Conditions: re-used fluorous catalyst mixture from 4 days earlier, 23 mM pyruvate, 47 mM DMSO in 0.2 mL CD3OD added.
The mark [5] stands for this setting: catalyst of Example 16 6.6 mM, 40 mM sodium [1-13C]pyruvate, 50 mM DMSO, CD3OD, about 0.4 μT, 5° C., 110 psi, 90 scc/m.
Setting [6] is: catalyst shown in Scheme 4 7.6 mM, 20 mM sodium [1-13C]pyruvate, 50 mM DMSO, CD3OD, about 0.4 μT, 5° C., 110 psi, 90 scc/m.

Take `C[13C](=O)C(=O)O` [[1-^13C]pyruvate, Sodium [1-^13C]-pyruvate]: in data set [1] (30 mM sodium [1-13C]pyruvate, 2.6 mM fluorinated SABRE catalyst, 40 mM DMSO, p-H2 70 scc/m, 100 PSI), the “optimum temperature for polarization transfer” value is −7.24 °C. The “signal enhancement ε” value in data set [1] (catalyst of Example 4 2.6 mM, 20 mM sodium [1-13C]pyruvate, 40 mM DMSO, 0.4 μT, 0° C., 110 PSI, 90 scc/m p-H2) is on record as around 86500 fold; in data set [1] (setting [5]) it was around 16900; in data set [1] (setting [6]), around 19000; in data set [4], around 3090 fold. For the same molecule, the figures for the “polarization P(13C)” value in data set [1] (setting [5]) and in data set [1] (setting [6]) were around 2.17% and around 4.91%, respectively. For the same molecule, the optimum mixing field came to 0.4 μT in data set [1] (methanol-d4, 0° C., 30 mM sodium [1-13C]pyruvate, 2.6 mM fluorinated SABRE catalyst, 40 mM DMSO, p-H2 70 scc/m, 100 PSI) and 0.4 μT in data set [2] (22 mM pyruvate, 50 ssc/m). Further, the signal enhancement is around 38600 fold in data set [2] (23 mM pyruvate, 0.4 μT, 90 ssc/m) and around 10800 fold in data set [3].

(Values after patent US20250244419A1, “INFUSION DEVICE FOR THE PREPARATION AND DELIVERY OF MRI PROBES” (The United States of America, as represented by the …, priority 2022, published 2025).)
